Results published in the supplement of paper PMC10849652.
The list shows a part of the results.

Amino acid sequences for entries named in this document (tags omitted). A change or cut given only in a name is not applied to a line headed by its entry.
UniProt O75150, whole entry, looked up: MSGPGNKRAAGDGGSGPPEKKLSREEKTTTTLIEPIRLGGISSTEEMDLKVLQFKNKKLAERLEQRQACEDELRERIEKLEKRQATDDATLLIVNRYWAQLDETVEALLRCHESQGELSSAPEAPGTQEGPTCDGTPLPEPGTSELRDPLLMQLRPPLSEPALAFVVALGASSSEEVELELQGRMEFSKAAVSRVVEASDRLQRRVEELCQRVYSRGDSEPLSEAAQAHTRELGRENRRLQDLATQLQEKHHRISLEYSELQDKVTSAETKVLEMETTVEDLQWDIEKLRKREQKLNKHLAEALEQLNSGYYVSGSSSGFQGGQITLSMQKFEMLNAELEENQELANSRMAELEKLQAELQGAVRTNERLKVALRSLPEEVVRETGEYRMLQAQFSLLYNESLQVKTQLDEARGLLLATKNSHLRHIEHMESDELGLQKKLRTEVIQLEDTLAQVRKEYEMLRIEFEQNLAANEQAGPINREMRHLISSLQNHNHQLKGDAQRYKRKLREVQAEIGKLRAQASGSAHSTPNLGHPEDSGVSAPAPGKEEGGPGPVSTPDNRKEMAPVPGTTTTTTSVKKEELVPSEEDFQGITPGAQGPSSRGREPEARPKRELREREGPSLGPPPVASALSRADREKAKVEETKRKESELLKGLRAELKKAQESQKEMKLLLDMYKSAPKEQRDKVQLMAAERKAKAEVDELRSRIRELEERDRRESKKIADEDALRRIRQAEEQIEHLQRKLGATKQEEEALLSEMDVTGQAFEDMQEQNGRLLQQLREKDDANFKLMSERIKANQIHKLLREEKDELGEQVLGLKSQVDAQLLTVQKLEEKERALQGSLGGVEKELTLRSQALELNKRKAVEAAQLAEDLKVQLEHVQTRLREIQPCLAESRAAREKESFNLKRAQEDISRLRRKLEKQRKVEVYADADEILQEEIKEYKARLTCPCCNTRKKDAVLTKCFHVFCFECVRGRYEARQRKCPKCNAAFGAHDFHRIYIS
UniProt O15541: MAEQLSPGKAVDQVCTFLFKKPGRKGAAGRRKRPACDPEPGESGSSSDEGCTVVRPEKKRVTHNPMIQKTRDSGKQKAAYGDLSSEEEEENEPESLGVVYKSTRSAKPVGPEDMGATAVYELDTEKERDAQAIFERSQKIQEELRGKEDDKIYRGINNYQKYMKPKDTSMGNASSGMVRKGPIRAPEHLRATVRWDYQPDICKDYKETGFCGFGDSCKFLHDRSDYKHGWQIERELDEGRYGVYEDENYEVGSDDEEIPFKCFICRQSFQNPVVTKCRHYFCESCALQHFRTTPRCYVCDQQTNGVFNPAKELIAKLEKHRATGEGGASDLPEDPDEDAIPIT
UniProt O75695: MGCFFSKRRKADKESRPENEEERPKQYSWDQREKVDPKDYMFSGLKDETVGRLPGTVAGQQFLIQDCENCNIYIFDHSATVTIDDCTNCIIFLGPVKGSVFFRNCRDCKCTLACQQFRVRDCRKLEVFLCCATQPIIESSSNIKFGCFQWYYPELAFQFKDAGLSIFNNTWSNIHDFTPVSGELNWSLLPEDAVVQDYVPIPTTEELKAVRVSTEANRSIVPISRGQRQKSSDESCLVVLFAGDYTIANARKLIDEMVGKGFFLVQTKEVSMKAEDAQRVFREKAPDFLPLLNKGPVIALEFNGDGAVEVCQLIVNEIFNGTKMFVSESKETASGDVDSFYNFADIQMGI
UniProt Q969K3: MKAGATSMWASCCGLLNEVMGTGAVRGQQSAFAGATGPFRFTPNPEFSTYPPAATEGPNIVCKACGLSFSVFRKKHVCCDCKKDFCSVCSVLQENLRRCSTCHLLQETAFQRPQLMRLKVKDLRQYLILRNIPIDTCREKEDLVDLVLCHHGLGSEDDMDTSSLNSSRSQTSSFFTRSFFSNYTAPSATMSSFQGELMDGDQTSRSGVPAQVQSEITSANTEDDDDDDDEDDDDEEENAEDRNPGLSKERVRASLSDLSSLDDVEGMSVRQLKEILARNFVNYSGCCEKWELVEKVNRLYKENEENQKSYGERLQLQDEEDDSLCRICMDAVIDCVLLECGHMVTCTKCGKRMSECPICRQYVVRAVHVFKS
UniProt P10155: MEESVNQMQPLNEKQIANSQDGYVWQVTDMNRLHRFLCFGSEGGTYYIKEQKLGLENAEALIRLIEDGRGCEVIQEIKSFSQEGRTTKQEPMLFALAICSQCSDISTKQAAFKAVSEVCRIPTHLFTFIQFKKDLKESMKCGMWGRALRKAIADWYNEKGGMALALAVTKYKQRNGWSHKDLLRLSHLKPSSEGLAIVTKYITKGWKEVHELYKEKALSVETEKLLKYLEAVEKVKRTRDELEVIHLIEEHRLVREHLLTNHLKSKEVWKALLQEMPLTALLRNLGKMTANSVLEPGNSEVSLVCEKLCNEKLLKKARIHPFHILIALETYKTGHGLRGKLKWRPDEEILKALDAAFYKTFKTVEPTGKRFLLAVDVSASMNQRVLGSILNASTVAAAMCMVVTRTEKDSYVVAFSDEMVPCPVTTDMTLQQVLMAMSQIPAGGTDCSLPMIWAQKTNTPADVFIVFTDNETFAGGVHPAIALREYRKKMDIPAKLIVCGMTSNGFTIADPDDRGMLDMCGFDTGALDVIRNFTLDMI
UniProt Q8NC42: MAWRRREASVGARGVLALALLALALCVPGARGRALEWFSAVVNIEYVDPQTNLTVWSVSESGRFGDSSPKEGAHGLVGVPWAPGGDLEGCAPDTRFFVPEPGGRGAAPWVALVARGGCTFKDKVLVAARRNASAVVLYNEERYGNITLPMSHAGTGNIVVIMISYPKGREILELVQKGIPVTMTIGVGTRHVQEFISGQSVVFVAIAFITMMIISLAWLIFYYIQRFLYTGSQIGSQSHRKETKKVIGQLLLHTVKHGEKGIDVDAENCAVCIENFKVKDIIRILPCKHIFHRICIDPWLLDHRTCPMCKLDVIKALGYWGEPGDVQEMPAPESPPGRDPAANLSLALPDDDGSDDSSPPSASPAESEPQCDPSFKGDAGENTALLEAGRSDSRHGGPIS
UniProt P15927: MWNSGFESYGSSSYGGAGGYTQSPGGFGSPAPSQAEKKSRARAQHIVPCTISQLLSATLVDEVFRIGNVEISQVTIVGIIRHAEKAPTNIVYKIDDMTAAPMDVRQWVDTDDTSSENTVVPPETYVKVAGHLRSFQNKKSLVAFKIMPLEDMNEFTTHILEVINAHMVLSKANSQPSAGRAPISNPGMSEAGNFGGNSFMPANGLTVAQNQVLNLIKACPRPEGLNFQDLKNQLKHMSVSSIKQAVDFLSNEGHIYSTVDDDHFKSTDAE
UniProt Q96K19: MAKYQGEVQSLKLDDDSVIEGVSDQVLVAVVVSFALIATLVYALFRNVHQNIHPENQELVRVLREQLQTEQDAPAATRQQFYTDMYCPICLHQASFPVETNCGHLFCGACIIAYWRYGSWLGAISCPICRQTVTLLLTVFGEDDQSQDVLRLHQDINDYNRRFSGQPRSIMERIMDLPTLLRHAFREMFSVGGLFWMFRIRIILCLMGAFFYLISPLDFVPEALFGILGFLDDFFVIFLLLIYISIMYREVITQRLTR
UniProt Q9BQY4: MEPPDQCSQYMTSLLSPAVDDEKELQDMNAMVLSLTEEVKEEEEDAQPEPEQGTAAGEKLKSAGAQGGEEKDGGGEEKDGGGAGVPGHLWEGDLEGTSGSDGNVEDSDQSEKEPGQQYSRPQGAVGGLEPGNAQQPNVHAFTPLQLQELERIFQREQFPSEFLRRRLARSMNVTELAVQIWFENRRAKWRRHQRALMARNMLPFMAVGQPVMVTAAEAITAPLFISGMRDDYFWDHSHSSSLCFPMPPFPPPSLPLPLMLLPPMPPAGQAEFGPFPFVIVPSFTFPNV
UniProt Q9NPQ8: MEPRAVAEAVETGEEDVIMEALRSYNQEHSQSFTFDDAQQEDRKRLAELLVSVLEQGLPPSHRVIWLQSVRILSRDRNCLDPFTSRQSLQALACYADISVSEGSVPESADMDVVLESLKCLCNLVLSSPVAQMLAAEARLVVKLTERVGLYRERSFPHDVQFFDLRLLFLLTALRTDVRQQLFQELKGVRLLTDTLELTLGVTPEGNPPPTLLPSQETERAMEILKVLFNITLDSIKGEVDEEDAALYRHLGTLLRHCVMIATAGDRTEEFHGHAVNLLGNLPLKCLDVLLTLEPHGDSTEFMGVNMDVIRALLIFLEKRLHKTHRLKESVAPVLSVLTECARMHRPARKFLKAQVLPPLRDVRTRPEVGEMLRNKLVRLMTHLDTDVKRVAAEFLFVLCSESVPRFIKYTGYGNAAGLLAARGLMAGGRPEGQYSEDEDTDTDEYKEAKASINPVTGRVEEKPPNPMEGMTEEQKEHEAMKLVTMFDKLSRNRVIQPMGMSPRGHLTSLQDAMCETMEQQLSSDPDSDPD
UniProt O60930: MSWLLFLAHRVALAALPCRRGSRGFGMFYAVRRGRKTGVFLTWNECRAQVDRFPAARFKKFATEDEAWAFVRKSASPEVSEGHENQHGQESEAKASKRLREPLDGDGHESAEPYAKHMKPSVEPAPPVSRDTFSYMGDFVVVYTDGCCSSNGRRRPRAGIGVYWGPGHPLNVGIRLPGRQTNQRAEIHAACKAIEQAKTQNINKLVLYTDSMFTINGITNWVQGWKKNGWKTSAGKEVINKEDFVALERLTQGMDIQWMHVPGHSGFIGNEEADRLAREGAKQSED
UniProt Q92834: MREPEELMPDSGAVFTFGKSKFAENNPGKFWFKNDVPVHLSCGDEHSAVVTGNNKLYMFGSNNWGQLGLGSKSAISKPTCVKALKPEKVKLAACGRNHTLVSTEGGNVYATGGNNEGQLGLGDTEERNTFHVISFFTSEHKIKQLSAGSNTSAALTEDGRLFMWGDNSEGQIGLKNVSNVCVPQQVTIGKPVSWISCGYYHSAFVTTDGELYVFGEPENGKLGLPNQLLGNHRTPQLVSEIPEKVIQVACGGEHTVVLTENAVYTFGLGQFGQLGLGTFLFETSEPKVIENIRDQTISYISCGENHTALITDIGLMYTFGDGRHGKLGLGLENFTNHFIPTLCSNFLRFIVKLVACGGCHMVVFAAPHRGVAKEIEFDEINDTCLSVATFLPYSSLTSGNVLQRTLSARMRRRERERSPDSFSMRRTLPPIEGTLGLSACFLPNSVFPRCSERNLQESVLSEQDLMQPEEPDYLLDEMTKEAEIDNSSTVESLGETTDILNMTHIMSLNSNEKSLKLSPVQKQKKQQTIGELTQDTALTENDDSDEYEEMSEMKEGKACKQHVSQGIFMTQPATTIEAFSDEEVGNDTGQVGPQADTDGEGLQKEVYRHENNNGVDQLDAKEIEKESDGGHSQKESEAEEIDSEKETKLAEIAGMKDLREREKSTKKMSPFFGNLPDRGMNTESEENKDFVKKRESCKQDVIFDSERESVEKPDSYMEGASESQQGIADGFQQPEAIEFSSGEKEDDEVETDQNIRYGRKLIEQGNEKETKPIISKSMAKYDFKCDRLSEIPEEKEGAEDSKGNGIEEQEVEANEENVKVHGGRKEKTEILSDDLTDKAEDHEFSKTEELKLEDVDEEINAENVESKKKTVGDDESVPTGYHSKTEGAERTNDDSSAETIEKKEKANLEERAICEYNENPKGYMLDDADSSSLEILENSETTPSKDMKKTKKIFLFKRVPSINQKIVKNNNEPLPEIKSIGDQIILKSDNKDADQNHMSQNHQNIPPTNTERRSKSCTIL

Tests used:
Experiment in all cases: log2 fold change, soluble protein after heating vs DMSO (PISA); higher = thermal stabilisation; K562 lysate, 10 uM; active = over 0.2 and 3.5 SD of the protein, either way, in both replicates (recomputed)
[1] = compound: CCCS(=O)(=O)Nc1ccc(F)c(C(=O)c2c[nH]c3ncc(-c4ccc(Cl)cc4)cc23)c1F [vemurafenib]
How it was run: (§1)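 K562 pellets were dounce-homogenised in PBS pH 7.4 containing 1 mM MgCl2, and the crude extract, at 1 mg/mL protein, was exposed to 10 μM compound for 30 min. Aliquots were heated for 3 min across 48°C-58°C, pooled, brought to 0.5% NP-40 at 4°C and spun at 21,000xg for 90 min, with the supernatant taken as soluble protein. TMTpro 16plex LC-MS/MS with equalised channel sums quantified that protein. Values are log-two fold changes in thermal stability relative to solvent controls, taken from duplicates.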

[2] = compound: CCCS(=O)(=O)Nc1ccc(F)c(C(=O)c2c[nH]c3ncc(Cl)cc23)c1F
How it was run: as §1

[3] = compound: CCN(CCCOc1ccc2c(Nc3cc(CC(=O)Nc4cccc(F)c4)[nH]n3)ncnc2c1)CCOP(=O)(O)O [barasertib]
How it was run: as §1

[4] = compound: CC[C@@H]1C(=O)N(C)c2cnc(Nc3ccc(C(=O)NC4CCN(C)CC4)cc3OC)nc2N1C1CCCC1
How it was run: as §1

[5] = compound: CC[C@@H]1C(=O)N(C)c2cnc(Nc3ccc(C(=O)N[C@H]4CC[C@H](N5CCN(CC6CC6)CC5)CC4)cc3OC)nc2N1C(C)C [volasertib]
How it was run: as §1

[6] = compound: CCn1c(C(=O)N(C2CC2)C2CC2)cc2c3c(ncn3C)c(Nc3cc(C)n(C)n3)nc21
How it was run: as §1

[7] = compound: CCn1cc(-c2ccnc3[nH]c(-c4cccc(CN(C)C)c4)cc23)c(-c2ccc(NC(=O)N(C)C)cc2)n1
How it was run: as §1

[8] = compound: CN1CCC(CNc2ccc3ncc(-c4cccc(OC(F)(F)F)c4)n3n2)CC1
How it was run: as §1

[9] = compound: CN1CCN(CCOc2cc(OC3CCOCC3)c3c(Nc4c(Cl)ccc5c4OCO5)ncnc3c2)CC1 [saracatinib]
How it was run: as §1

[10] = compound: CN1CCN(c2nc(C3=C(c4c[nH]c5ccccc45)C(=O)NC3=O)c3ccccc3n2)CC1 [sotrastaurin]
How it was run: as §1

[11] = compound: CN1CC[C@H](c2c(O)cc(O)c3c(=O)cc(-c4ccccc4Cl)oc23)[C@H](O)C1 [alvocidib]
How it was run: as §1

[12] = compound: CN1CCc2c(c3ccccc3n2Cc2ccc(C(=O)NO)cc2)C1 [Tubastatin A]
How it was run: as §1

[13] = compound: CNC(=O)C1=CC=CC=C1NC2=NC(=NC=C2Cl)NC3=C(C=C(C=C3)N4CCOCC4)OC
How it was run: as §1

[14] = compound: CNC(=O)c1ccc(Nc2ncc(C(F)(F)F)c(NCc3nccnc3N(C)S(C)(=O)=O)n2)cc1 [defactinib]
How it was run: as §1

[15] = compound: CNc1nc(-c2ccc3c(N)n[nH]c3c2)cc(N2C[C@@H](C(=O)NC3CCCCC3)CC[C@H]2C)n1
How it was run: as §1

[16] = compound: COC(=O)N[C@@H](C)CNc1nccc(-c2cn(C(C)C)nc2-c2cc(Cl)cc(NS(C)(=O)=O)c2F)n1 [encorafenib]
How it was run: as §1

[17] = compound: COC(=O)[C@H](CCSC)NC(=O)C1=C(C=C(C=C1)NC[C@H](CS)N)C2=CC=CC=C2
How it was run: as §1

[18] = compound: COc1cc(Nc2ncc3c(n2)-c2ccc(Cl)cc2C(c2c(F)cccc2OC)=NC3)ccc1C(=O)O [alisertib]
How it was run: as §1

[19] = compound: COc1cc2nc(-c3cc(F)ccc3O)nc(N[C@@H]3CNC[C@H]3C(C)(C)O)c2cc1OC
How it was run: as §1

[20] = compound: COc1cc2ncnc(Nc3ccc(F)c(Cl)c3)c2cc1OCCCN1CCOCC1 [gefitinib]
How it was run: as §1

Row | Target | log2 fold change [1] | log2 fold change [2] | log2 fold change [3] | log2 fold change [4] | log2 fold change [5] | log2 fold change [6] | log2 fold change [7] | log2 fold change [8] | log2 fold change [9] | log2 fold change [10] | log2 fold change [11] | log2 fold change [12] | log2 fold change [13] | log2 fold change [14] | log2 fold change [15] | log2 fold change [16] | log2 fold change [17] | log2 fold change [18] | log2 fold change [19] | log2 fold change [20]
1 | RNF40 (UniProt O75150) | inactive: 0.001 | inactive: 0.008 | inactive: 0.043 | inactive: -0.005 | inactive: -0.047 | inactive: 0.002 | inactive: 0.011 | inactive: -0.033 | inactive: 0.033 | inactive: -0.012 | inactive: -0.003 | inactive: -0.102 | inactive: 0.023 | inactive: 0.022 | inactive: -0.006 | inactive: 0.015 | inactive: 0.079 | inactive: -0.002 | inactive: 0 | inactive: 0.013
2 | RNF113A (UniProt O15541) | inactive: 0.021 | inactive: -0.012 | inactive: -0.042 | inactive: 0.04 | inactive: 0.009 | inactive: -0.056 | inactive: -0.021 | inactive: 0.017 | inactive: 0.031 | inactive: -0.056 | inactive: -0.062 | inactive: 0.05 | inactive: 0.014 | inactive: -0.013 | inactive: 0.022 | inactive: -0.019 | inactive: -0.017 | inactive: -0.015 | inactive: 0.015 | inactive: 0.004
3 | RP2 (UniProt O75695) | inactive: -0.108 | inactive: -0.04 | inactive: 0.06 | inactive: 0.028 | inactive: -0.011 | inactive: -0.108 | inactive: 0.081 | inactive: -0.018 | inactive: 0.055 | inactive: -0.029 | inactive: 0.029 | inactive: 0.042 | inactive: 0.019 | inactive: -0.019 | inactive: 0.021 | inactive: -0.09 | inactive: -0.028 | inactive: 0.01 | inactive: -0.015 | inactive: -0.005
4 | RNF34 isoform 2 (UniProt Q969K3) | inactive: -0.06 | inactive: 0.042 | inactive: 0.004 | inactive: 0.04 | inactive: 0.161 | inactive: 0.027 | inactive: 0.081 | inactive: 0.015 | inactive: -0.004 | inactive: 0.021 | inactive: -0.027 | inactive: 0.048 | inactive: 0.044 | inactive: 0.038 | inactive: 0.119 | inactive: 0.136 | inactive: -0.098 | inactive: 0.024 | inactive: 0.071 | inactive: -0.048
5 | RO60 (UniProt P10155) | inactive: -0.02 | inactive: -0.005 | inactive: -0.017 | inactive: 0.02 | inactive: 0.024 | inactive: -0.018 | inactive: 0.025 | inactive: -0.06 | inactive: -0.012 | inactive: -0.015 | inactive: 0.046 | inactive: 0.02 | inactive: 0.011 | inactive: 0.011 | inactive: -0.011 | inactive: 0 | inactive: -0.044 | inactive: 0.014 | inactive: -0.006 | inactive: 0.019
6 | RNF149 (UniProt Q8NC42) | inactive: -0.026 | inactive: -0.15 | inactive: 0.026 | – | inactive: -0.063 | inactive: -0.162 | inactive: 0.343 | inactive: 0.02 | inactive: 0.021 | inactive: -0.081 | inactive: -0.038 | inactive: -0.047 | inactive: 0.02 | inactive: 0.028 | inactive: 0.004 | – | – | active: -0.483 | inactive: -0.059 | inactive: -0.075
7 | RPA2 isoform 3 (UniProt P15927) | inactive: 0.054 | inactive: 0.022 | inactive: -0.019 | inactive: 0.007 | inactive: 0.019 | inactive: -0.017 | inactive: -0.075 | inactive: 0.039 | inactive: -0.016 | inactive: -0.008 | inactive: -0.018 | inactive: 0.04 | inactive: -0.008 | inactive: -0.014 | inactive: -0.02 | inactive: -0.025 | inactive: 0.016 | inactive: -0.003 | inactive: 0.007 | inactive: -0.007
8 | RNF170 (UniProt Q96K19) | inactive: -0.08 | inactive: 0.02 | inactive: 0.189 | – | inactive: -0.131 | – | inactive: -0.015 | inactive: 0.09 | inactive: -0.201 | – | inactive: 0.371 | – | inactive: -0.137 | inactive: 0.027 | inactive: -0.067 | – | – | inactive: 0.055 | inactive: 0.07 | inactive: 0.037
9 | RHOXF2 (UniProt Q9BQY4) | inactive: 0.069 | inactive: -0.032 | inactive: 0.047 | inactive: 0.145 | inactive: 0.036 | inactive: -0.049 | inactive: -0.241 | inactive: -0.083 | inactive: 0.055 | inactive: -0.01 | inactive: 0.004 | inactive: 0.017 | inactive: 0.019 | inactive: 0.013 | inactive: 0.017 | inactive: 0.063 | inactive: -0.042 | inactive: 0.049 | inactive: 0.042 | inactive: -0.017
10 | RIC8A (UniProt Q9NPQ8) | inactive: 0.016 | inactive: 0.011 | inactive: 0.044 | inactive: -0.083 | inactive: -0.007 | inactive: 0.075 | inactive: -0.034 | inactive: -0.034 | inactive: 0.035 | inactive: 0.019 | inactive: 0 | inactive: -0.092 | inactive: 0.009 | inactive: 0.058 | inactive: -0.033 | inactive: 0.04 | inactive: 0.023 | inactive: -0.008 | inactive: -0.016 | inactive: 0.024
11 | RNASEH1 (UniProt O60930) | – | – | – | – | – | – | inactive: -0.023 | inactive: -0.002 | – | – | inactive: 0.024 | – | – | – | – | – | – | – | – | –
12 | RPGR (UniProt Q92834) | – | – | inactive: 0.036 | – | – | – | – | – | – | inactive: -0.087 | – | – | – | – | – | – | – | – | – | –

Single records, as listed above. Values in the order: log2 fold change [1]	log2 fold change [2]	log2 fold change [3]	log2 fold change [4]	log2 fold change [5]	log2 fold change [6]	log2 fold change [7]	log2 fold change [8]	log2 fold change [9]	log2 fold change [10]	log2 fold change [11]	log2 fold change [12]	log2 fold change [13]	log2 fold change [14]	log2 fold change [15]	log2 fold change [16]	log2 fold change [17]	log2 fold change [18]	log2 fold change [19]	log2 fold change [20]
RHOXF2 (UniProt Q9BQY4) is listed as inactive: 0.069	inactive: -0.032	inactive: 0.047	inactive: 0.145	inactive: 0.036	inactive: -0.049	inactive: -0.241	inactive: -0.083	inactive: 0.055	inactive: -0.01	inactive: 0.004	inactive: 0.017	inactive: 0.019	inactive: 0.013	inactive: 0.017	inactive: 0.063	inactive: -0.042	inactive: 0.049	inactive: 0.042	inactive: -0.017
RNF40 (UniProt O75150) is listed as inactive: 0.001	inactive: 0.008	inactive: 0.043	inactive: -0.005	inactive: -0.047	inactive: 0.002	inactive: 0.011	inactive: -0.033	inactive: 0.033	inactive: -0.012	inactive: -0.003	inactive: -0.102	inactive: 0.023	inactive: 0.022	inactive: -0.006	inactive: 0.015	inactive: 0.079	inactive: -0.002	inactive: 0	inactive: 0.013
